Article PMC6566343
Results are given in words; binding and its absence hold for the method and conditions named. For part of these data: In cells and extracts the contact can be indirect. Some binding calls cover weakened binding; strength is not graded here. For part of these data: Tags and fused reporters may be left off the sequences shown. Blank lines part the entries; values can stand above or below the binder they belong to.

Tests used:
[1] = biological target: T1, BD-CIPK11 (full-length CIPK11, Calcineurin B-like interacting protein kinase 11) (Arabidopsis thaliana) (UniProt O22932); assay: two-hybrid; BD and AD constructs co-transformed into S. cerevisiae AH109; growth on SD/-Trp/-Leu/-His/-Ade, 30 °C, four days
T1 sequence: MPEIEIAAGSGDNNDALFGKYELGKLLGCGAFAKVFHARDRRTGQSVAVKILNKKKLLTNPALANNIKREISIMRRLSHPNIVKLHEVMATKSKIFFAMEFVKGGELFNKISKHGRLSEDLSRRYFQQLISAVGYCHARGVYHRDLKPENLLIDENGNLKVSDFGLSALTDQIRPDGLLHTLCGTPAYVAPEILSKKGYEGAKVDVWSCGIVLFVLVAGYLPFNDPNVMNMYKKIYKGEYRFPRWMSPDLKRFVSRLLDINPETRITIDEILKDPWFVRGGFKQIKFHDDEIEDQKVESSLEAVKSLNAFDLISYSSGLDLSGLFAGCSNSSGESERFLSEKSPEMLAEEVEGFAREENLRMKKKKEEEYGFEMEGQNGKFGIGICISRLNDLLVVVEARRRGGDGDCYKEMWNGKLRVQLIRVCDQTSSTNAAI

[2] = biological target: T1, BD-CIPK11 (full-length CIPK11, Calcineurin B-like interacting protein kinase 11) (Arabidopsis thaliana); assay: two-hybrid; screen with full-length CIPK11 as bait
[3] = biological target: T2, BD-CIPK11-KD (kinase domain of CIPK11) (Arabidopsis thaliana) (UniProt O22932); assay: two-hybrid; BD and AD constructs co-transformed into S. cerevisiae AH109; growth on SD/-Trp/-Leu/-His/-Ade, 30 °C, four days
T2 sequence: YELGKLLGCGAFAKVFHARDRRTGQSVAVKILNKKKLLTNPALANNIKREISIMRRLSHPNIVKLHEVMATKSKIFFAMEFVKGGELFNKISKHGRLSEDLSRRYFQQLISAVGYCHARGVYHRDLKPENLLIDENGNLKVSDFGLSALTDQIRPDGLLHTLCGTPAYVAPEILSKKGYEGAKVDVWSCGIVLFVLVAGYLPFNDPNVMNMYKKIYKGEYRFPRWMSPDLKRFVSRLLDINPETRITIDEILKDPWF

[4] = biological target: T3, CIPK11-KD-YN (kinase domain of CIPK11 for BiFC) (Arabidopsis thaliana) (UniProt O22932); assay: split reporter; BiFC with split YFP in N. benthamiana leaf epidermal cells, Agrobacterium infiltration, imaged after 48 h; DAPI for the nucleus
T3 sequence: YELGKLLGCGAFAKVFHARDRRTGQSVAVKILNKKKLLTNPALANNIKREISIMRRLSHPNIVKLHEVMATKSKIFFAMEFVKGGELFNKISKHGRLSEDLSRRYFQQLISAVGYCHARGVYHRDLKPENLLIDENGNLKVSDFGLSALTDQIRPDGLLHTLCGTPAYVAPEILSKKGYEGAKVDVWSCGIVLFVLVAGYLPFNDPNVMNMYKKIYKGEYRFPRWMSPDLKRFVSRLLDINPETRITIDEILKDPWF

[5] = biological target: T4, CIPK11-YFPN (full-length CIPK11 for BiFC) (Arabidopsis thaliana) (UniProt O22932); assay: as above
T4 sequence: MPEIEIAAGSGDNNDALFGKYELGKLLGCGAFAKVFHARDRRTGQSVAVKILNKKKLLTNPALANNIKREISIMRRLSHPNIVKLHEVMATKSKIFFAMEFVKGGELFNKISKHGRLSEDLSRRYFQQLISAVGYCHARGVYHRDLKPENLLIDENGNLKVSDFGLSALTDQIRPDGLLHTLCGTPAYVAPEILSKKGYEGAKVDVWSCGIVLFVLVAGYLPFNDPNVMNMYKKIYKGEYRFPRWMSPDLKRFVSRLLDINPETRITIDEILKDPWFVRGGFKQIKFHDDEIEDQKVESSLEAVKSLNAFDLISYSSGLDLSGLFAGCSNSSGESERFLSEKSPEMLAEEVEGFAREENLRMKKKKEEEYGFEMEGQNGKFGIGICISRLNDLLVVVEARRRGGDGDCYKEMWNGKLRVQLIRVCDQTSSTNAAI

binding [2]: binds
B2: Di19-3 (prey captured in the yeast two-hybrid screen) (protein, UniProt Q84J70 1-223)
chain: MDSDSWSDRLASATRRYQLAFPSRSDTFLGFEEIDGEEEFREEFACPFCSDYFDIVSLCCHIDEDHPMEAKNGVCPVCAVRVGVDMVAHITLQHANIFKMHRKRKPRRGGSYSTLSILRREFPDGNFQSLFGGSSCIVSSSSSSNVAADPLLSSFISPIADGFFTTESCISAETGPVKKTTIQCLPEQNAKKTSLSAEDHKQKLKRSEFVRELLSSTILDDSL

binding [4]: binds
binding [5]: binds
B4: Di19-3-YFPC (Di19-3 for BiFC) (protein, UniProt Q84J70 1-223)
chain: MDSDSWSDRLASATRRYQLAFPSRSDTFLGFEEIDGEEEFREEFACPFCSDYFDIVSLCCHIDEDHPMEAKNGVCPVCAVRVGVDMVAHITLQHANIFKMHRKRKPRRGGSYSTLSILRREFPDGNFQSLFGGSSCIVSSSSSSNVAADPLLSSFISPIADGFFTTESCISAETGPVKKTTIQCLPEQNAKKTSLSAEDHKQKLKRSEFVRELLSSTILDDSL

Continued, binder first:

B1: AD-ABI5 (ABA insensitive 5) (protein, UniProt Q9SJN0 1-442)
chain: MVTRETKLTSEREVESSMAQARHNGGGGGENHPFTSLGRQSSIYSLTLDEFQHALCENGKNFGSMNMDEFLVSIWNAEENNNNQQQAAAAAGSHSVPANHNGFNNNNNNGGEGGVGVFSGGSRGNEDANNKRGIANESSLPRQGSLTLPAPLCRKTVDEVWSEIHRGGGSGNGGDSNGRSSSSNGQNNAQNGGETAARQPTFGEMTLEDFLVKAGVVREHPTNPKPNPNPNQNQNPSSVIPAAAQQQLYGVFQGTGDPSFPGQAMGVGDPSGYAKRTGGGGYQQAPPVQAGVCYGGGVGFGAGGQQMGMVGPLSPVSSDGLGHGQVDNIGGQYGVDMGGLRGRKRVVDGPVEKVVERRQRRMIKNRESAARSRARKQAYTVELEAELNQLKEENAQLKHALAELERKRKQQYFESLKSRAQPKLPKSNGRLRTLMRNPSCPL
binding [1]: binds

B3: AD-Di19-3 (dehydration-induced19-3) (protein, UniProt Q84J70 1-223)
chain: MDSDSWSDRLASATRRYQLAFPSRSDTFLGFEEIDGEEEFREEFACPFCSDYFDIVSLCCHIDEDHPMEAKNGVCPVCAVRVGVDMVAHITLQHANIFKMHRKRKPRRGGSYSTLSILRREFPDGNFQSLFGGSSCIVSSSSSSNVAADPLLSSFISPIADGFFTTESCISAETGPVKKTTIQCLPEQNAKKTSLSAEDHKQKLKRSEFVRELLSSTILDDSL
binding [1]: binds
binding [3]: binds
